Here are results for 52 compounds from PubChem BioAssay AID1487 (National Center for Advancing Translational Sciences (NCATS), 2009).

The nature of this assay: qHTS Assay for Modulators of Lamin A Splicing. As to conditions: HeLa LMNA splicing GFP/RFP minigene ratio, 48 h. An outline of the steps:
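Read-out is the ratio of GFP to DsRed2 object intensity, acquired by 488 nm laser-scanning cytometry on HeLa lamin A-EGFP minigene reporter cells. Compound incubation 48 hrs at 37 °C in Opti-MEM with 2% FBS; DMSO 0.5% final.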
For orientation: In qHTS, concentration-response curves come from the screen itself.

[1] abbreviates: measured here: GFP splicing reporter channel.
Setting [2] is: measured here: RFP viability control channel.

The structures appear in SMILES notation. Where “and” joins values, the source holds several entries; their conditions need not be identical. Equal entries are not always repeated. The list shows a part of the results. These are further read-outs of the screen, such as a control signal, another cell line or another target. No call is given for them. Compounds called inactive in the main read-out are mostly missing here. Potencies come from curve fits of mixed quality, noted in brackets.

For the compound `CC(=O)c1sc(NC(=O)c2cccnc2Cl)nc1C`, under setting [1], the AC50 (commonly the concentration at which the activity in the assay is half-maximal) is 0.00501 µM [rising, full curve, poor fit].

`CN(C)c1ccc(-c2nc(N(C)C)c3ccccc3n2)cc1`: under setting [1], the AC50 is 35.5 µM [falling, single point].

On to `C/C(=N\NC(=O)c1nn(C)cc1Br)c1cccc(NC(=O)c2ccncc2)c1`, for which the AC50 under setting [1] was 1.58 µM [rising, partial curve] and the AC50 under setting [2] was 1.78 µM [rising, partial curve].

Consider `COCCNc1nc(=S)[nH]c2cc(OC)c(OC)cc12`, for which the AC50 under setting [2] is 15.8 µM [rising, single point].

For the compound `O=C(Nc1ccc2c(c1)OCO2)C1CCN(C(=O)CSc2ncnc3ccccc23)CC1`, the AC50 by setting is: under setting [1], 15.8 µM [rising, single point]; under setting [2], 11.2 µM [rising, partial curve].

Turning to `Cc1ccc(NCCC(=O)c2cccs2)cc1C`, the AC50 under setting [1] is 8.91 µM [falling, partial curve].

With `FC(F)Sc1ccc(NC(=S)NC2CCCC2)cc1`, the AC50 under setting [1] is 25.1 µM [falling, partial curve] and the AC50 under setting [2] was 11.2 µM [falling, partial curve].

Turning to `CCOc1ccccc1NC(=O)CN1C(=O)C2(SCC(=O)N2c2cccc(F)c2)c2ccccc21` (stereo not given), under setting [2], the AC50 was 35.5 µM [rising, partial curve, poor fit].

In the case of `O=C(Nc1ccc(F)c(Cl)c1)c1cc(S(=O)(=O)N2CCCc3ccccc32)ccc1F`, the AC50 was 0.355 µM [falling, full curve, poor fit] under setting [1] and 1.12 µM [falling, full curve, poor fit] under setting [2].

As to `COc1ccc(C(=O)/C(=C/O)N=Nc2ccc(F)cc2)cc1`, the AC50 is 15.8 µM [falling, single point] under setting [1] and 22.4 µM [falling, partial curve, poor fit] under setting [2].

`Cc1cnc(C(=O)Nc2ccc(C)c(S(=O)(=O)N(C)C)c2)cn1`: the AC50 under setting [2] was 3.55 µM [falling, partial curve].

Regarding `CC1CC(C)CN(C(=O)COC(=O)c2cc3ccccc3cc2O)C1` (stereo not given), the AC50 under setting [1] is 15.8 µM [rising, single point] and the AC50 under setting [2] is 14.1 µM [rising, single point].

As to `Cc1ccc(CSc2nc3ccccc3cc2C=O)cc1`, the AC50 is 1.58 µM [falling, full curve] under setting [1] and 2 µM [falling, full curve] under setting [2].

As for `Cn1c(CNc2nc3ccccc3n2C)nc2ccccc21`, the AC50 reads like this: under setting [1], 17.8 µM [rising, partial curve, poor fit]; under setting [2], 31.6 µM [rising, partial curve, poor fit].

`COCCn1c(=O)c(-c2ccc(Cl)cc2)nc2cnc(N3CCNCC3)nc21`: the AC50 reads like this: under setting [1], 11.2 µM [falling, single point]; under setting [2], 14.1 µM [falling, partial curve].

Take `CC1=NN(c2ccccc2)C(=O)C1C(=O)c1ccccc1` (stereo not given): under setting [2], the AC50 is 14.1 µM [rising, single point].

`Cc1c(OC(=O)CNC(=O)OC(C)(C)C)ccc2c3c(c(=O)oc12)CCC3`: under setting [2], the AC50 is 35.5 µM [rising, single point].

Take `COc1ccc(CC(=O)Nc2nc(C)cs2)cc1OC`: the AC50 runs as follows: under setting [1], 2.24 µM [rising, full curve, poor fit]; under setting [2], 12.6 µM [rising, partial curve].

Take `CC1Cc2ccccc2N1C(=O)CO/N=C/c1ccc(OC(F)F)cc1` (stereo not given): the AC50 by setting is: under setting [1], 20 µM [rising, single point]; under setting [2], 20 µM [rising, single point].

For `COc1ccc(/C=C/c2noc(-c3ccccc3O)n2)cc1`, the AC50 under setting [1] was 0.00447 µM [falling, full curve, poor fit] and the AC50 under setting [2] was 1.78 µM [falling, single point].

For `COc1ccc(CNC(=O)c2ccc3c(c2)nc2n3CCCCC2)c(OC)c1`, the AC50 is, setting by setting: under setting [1], 1.26 µM [rising, partial curve]; under setting [2], 3.55 µM [rising, partial curve].

With `CCOC(=O)C1(S(=O)(=O)c2ccccc2)CCN(Cc2ccc(Cl)cc2)CC1`, the AC50 under setting [2] is 17.8 µM [rising, single point].

Consider `CN1C(=O)CS(=O)c2ccc(C(=O)NCCC3=CCCCC3)cc21` (stereo not given), for which the AC50 under setting [2] is 15.8 µM [rising, partial curve, poor fit].

For `O=C(CCn1[nH]c(=O)c2ccccc2c1=O)OC1CCCCC1`, the AC50 runs as follows: under setting [1], 7.94 µM [rising, partial curve, poor fit]; under setting [2], 3.16 µM [rising, partial curve].

As for `O=C(Nc1ccc2c(c1)OCO2)C1CCN(Cc2cnn(-c3ccccc3)c2-n2cccc2)CC1`, under setting [2], the AC50 was 25.1 µM [rising, single point].

With `CCOc1ccc(NC(=O)NCCCSC2CCCCC2)cc1`, the AC50 under setting [1] was 17.8 µM [rising, single point] and the AC50 under setting [2] is 20 µM [rising, single point].

Take `CCC(C)NCC(=O)Nc1cc(S(=O)(=O)N(CC)c2ccccc2)ccc1Cl` (stereo not given): the AC50 under setting [2] was 35.5 µM [rising, single point].

Turning to `CCOc1ccc(-n2c(=O)c3sccc3n(CC(=O)Nc3cccc(OC)c3)c2=O)cc1`, the concentration at half-maximal activity (AC50) under setting [2] is 3.16 µM [rising, partial curve, poor fit].

Take `COc1ccc(NC(=O)COCc2cc(-c3cccs3)on2)cc1`: under setting [1], the AC50 was 3.16 µM [rising, single point].

On to `CC12CCC(C1)C(C)(C)C2=O` (stereo not given), for which the AC50 under setting [1] was 0.00631 µM [falling, full curve, poor fit].

In the case of `Oc1ccc(-c2[nH]ncc2-c2cccc3cccnc23)c(O)c1`, the AC50 under setting [2] is 22.4 µM [rising, single point].

For the compound `Nc1c(C(=O)NCCN2CCOCC2)c2nc3ccccc3nc2n1CCc1ccccc1`, the AC50 under setting [2] was 35.5 µM [rising, single point].

Regarding `COc1ccc(NC(=O)CC2C(=O)N(c3ccc(OC)cc3)C(=S)N2NC(=O)c2cccc(F)c2)cc1` (stereo not given), the AC50 under setting [1] was 35.5 µM [falling, single point] and the AC50 under setting [2] was 17.8 µM [falling, single point].

For `CCOC(=O)c1cccc(NC(=O)C2CCN(S(=O)(=O)c3cn(C)cn3)CC2)c1`, the AC50 was 1.78 µM [falling, full curve, poor fit] under setting [1] and 0.158 µM [falling, full curve, poor fit] under setting [2].

Consider `CCCc1c(NC(=O)Nc2ccc(Cl)cc2Cl)cnn1-c1ccccc1`, for which the AC50 is, setting by setting: under setting [1], 7.08 µM [falling, partial curve, poor fit]; under setting [2], 22.4 µM [falling, partial curve, poor fit].

Turning to `COc1ccc(N=C2S/C(=C\c3ccc(N4CCOCC4)o3)C(=O)N2CCc2c[nH]c3ccccc23)cc1`, the AC50 was 10 µM [falling, partial curve] under setting [1] and 7.08 µM [falling, partial curve] under setting [2].

Take `CC(C)(C)OC(=O)N1CCC(c2c(C(=O)NCCN3CCC(Cc4ccccc4)CC3)cnn2-c2ccccc2)CC1`: the AC50 was 20 µM [falling, single point] under setting [1] and 22.4 µM [falling, single point] under setting [2].

Turning to `CCc1ccc(NC(=O)N2CC(C)Oc3ccc(C)cc32)cc1` (stereo not given), the AC50 is, setting by setting: under setting [1], 12.6 µM [falling, partial curve, poor fit]; under setting [2], 12.6 µM [falling, partial curve, poor fit].

As to `Cc1nc(-c2ccccc2)cn2c1nc1ccccc12`, the AC50 under setting [2] was 0.0501 µM [rising, full curve, poor fit].

Consider `O=C(O)/C=C/C(=O)N1CCN(c2ccc(F)cc2)CC1`, for which, under setting [2], the AC50 is 0.00316 µM [rising, full curve, poor fit].

On to `O=S(=O)(c1ccc(Cl)cc1)N1CCN=C1SCc1cccc(Cl)c1`, for which the AC50 was 35.5 µM [rising, single point] under setting [1] and 35.5 µM [rising, partial curve] under setting [2].

On to `O=C(OCn1nnc2ccccc2c1=O)c1ccc2ncsc2c1`, for which the AC50 under setting [2] is 4.47 µM [rising, single point].

Take `Cc1cccc(N2CCN(C(=S)NCc3ccco3)CC2)c1C`: the AC50 runs as follows: under setting [1], 35.5 µM [rising, single point]; under setting [2], 35.5 µM [rising, single point].

As for `OC1CCN(c2ncnc3nc[nH]c23)CC1`, the AC50 runs as follows: under setting [1], 10 µM [rising, single point]; under setting [2], 11.2 µM [rising, partial curve].

With `O=C(c1cccc(Cl)c1)C1CCCN(Cc2ccc(N3CCNC3=O)cc2)C1` (stereo not given), the AC50 under setting [2] is 5.01 µM [falling, partial curve, poor fit].

Take `CC(C)C1C(C#N)=C(N)Oc2n[nH]c(-c3ccc4ccccc4c3)c21` (stereo not given): the AC50 under setting [2] was 3.55 µM [rising, full curve].

For `CC(CCc1ccc(O)cc1)NCCc1ccc(O)c(O)c1` (stereo not given), the AC50 reads like this: under setting [1], 891 nM [falling, single point] and 35.5 µM [falling, single point]; under setting [2], 35.5 µM [falling, single point].

For `CC(C)S(=O)(=O)c1csc(NC(=O)Nc2cc(Cl)ccc2Cl)c1Cl`, the AC50 under setting [1] is 35.5 µM [falling, single point] and the AC50 under setting [2] was 25.1 µM [falling, partial curve, poor fit].

As to `COC(=O)c1ccc2c(c1)C(C)(C)C(/C=C/c1ccccc1O)=[N+]2C`, the AC50 is 3.16 µM [falling, full curve] under setting [1] and 6.31 µM [falling, full curve] under setting [2].

Take `COc1cccc(CNc2ccc(S(N)(=O)=O)cc2)c1OC`: the AC50 was 11.2 µM [rising, single point] under setting [1] and 17.8 µM [rising, single point] under setting [2].

On to `COc1ccc(CNC(=O)COCc2cc(-c3cccs3)on2)cc1`, for which the AC50 under setting [2] is 0.02 µM [falling, full curve, poor fit].

In the case of `O=C(CCOc1ccccc1)N(Cc1cccnc1)c1nc2c(F)cccc2s1`, under setting [2], the AC50 was 11.2 µM [falling, partial curve, poor fit].
